Results are given in words; binding and its absence hold for the method and conditions named. Binding can be weak; no strength is given. Sequences can lack the tags named with a protein.
Target: T1, MBP-TRPV4-Ct (C-terminal cytoplasmic domain of TRPV4 fused with MBP) (UniProt Q9ERZ8)
T1 sequence: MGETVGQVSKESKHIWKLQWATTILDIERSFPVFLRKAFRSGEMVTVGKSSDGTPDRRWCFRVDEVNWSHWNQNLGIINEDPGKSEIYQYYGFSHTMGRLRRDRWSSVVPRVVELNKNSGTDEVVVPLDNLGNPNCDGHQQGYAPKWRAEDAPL
Assay: pull-down; MBP fusion protein on amylose resin incubated with purified soluble tubulin (1 mg/ml) or purified soluble actin (0.1 mg/ml), 1 hour at RT, PEM-S buffer; actin in the presence or absence of Ca2+; eluted with maltose; immunoblot; both purified

binding: binds
Substance: neuron-specific β-III tubulin in purified porcine brain tubulin (complex)

From PMC2906515
